This assay has as its target T1, antigen of the affinity maturation selections of antibody 3131 (IL-18Rβ, construct not named) (UniProt O95256).
T1 sequence (looked up): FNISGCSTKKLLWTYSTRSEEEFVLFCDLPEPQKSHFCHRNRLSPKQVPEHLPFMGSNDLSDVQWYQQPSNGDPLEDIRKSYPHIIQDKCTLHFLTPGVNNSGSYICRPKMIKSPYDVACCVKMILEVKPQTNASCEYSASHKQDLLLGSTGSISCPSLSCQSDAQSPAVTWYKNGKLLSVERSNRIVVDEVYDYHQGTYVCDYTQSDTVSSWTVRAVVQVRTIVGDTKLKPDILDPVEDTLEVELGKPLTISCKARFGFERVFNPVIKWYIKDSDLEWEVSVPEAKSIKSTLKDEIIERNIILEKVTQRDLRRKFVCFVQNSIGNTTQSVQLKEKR
Briefly: affinity-based solution-phase phage display selection, decreasing antigen concentration.

These are yes or no findings as the source states them, for the method shown. Some results given as binding are weak or reduced against the parent protein; the word gives no strength.

B1: 3131 AM2-24 (Fab, V domains shown)
VH: EVQLVESGGGLVQPGGSLRLSCAASGFNLYYSSMHWVRQAPGKGLEWVASIYSSYGYTYYADSVKGRFTISADTSKNTAYLQMNSLRAEDTAVYYCARSSFSHGYGWYGLDYWGQGTLVTVSS
VL: DIQMTQSPSSLSASVGDRVTITCRASQSVSSAVAWYQQKPGKAPKLLIYSDSSLYSGVPSRFSGSRSGTDFTLTISSLQPEDFATYYCQQYGYHYAGLITFGQGTKVEIK
notes: Fab
In the case of B1, the binding result is on record as “binds”.

B2: 3131 AM2-O-02 (Fab, V domains shown)
VH: EVQLVESGGGLVQPGGSLRLSCAASGFDLYYSSMHWVRQAPGKGLEWVASIYSSGGSTSYADSVKGRFTISADTSKNTAYLQMNSLRAEDTAVYYCARSSFSHGYGWYGLDYWGQGTLVTVSS
VL: DIQMTQSPSSLSASVGDRVTITCRASQSVSSAVAWYQQKPGKAPRLLIYSASSLYSGVPSRFSGSRSGTDFTLTISSLQPEDFATYYCQQYGYHYAGLITFGQGTKVEIK
Take B2: the binding entry is “binds”.

B3: 3131 AM2-8 (Fab, V domains shown)
VH: EVQLVESGGGLVQPGGSLRLSCAASGFNLYYSSMHWVRQAPGKGLEWVASIYSSNGRTYYADSVKGRFTISADTSKNTAYLQMNSLRAEDTAVYYCARSSFSHGYGWYGLDYWGQGTLVTVSS
VL: DIQMTQSPSSLSASVGDRVTITCRASQSVSSAVAWYQQKPGKAPKLLIYSASSLYSGVPSRFSGSRSGTDFTLTISSLQPEDFATYYCQQYGYHYAGLITFGQGTKVEIK
For B3, the binding entry is recorded as “binds”.

B4: 3131 AM2-O-01 (Fab, V domains shown)
VH: EVQLVESGGGLVQPGGSLRLSCAASGFTLYYSSMHWVRQAPGKGLEWVASIYSSGGSTSYADSVKGRFTISADTSKNTAYLQMNSLRAEDTAVYYCARSSFSHGYGWYGLDYWGQGTLVTVSS
VL: DIQMTQSPSSLSASVGDRVTITCRASQSVSSAVAWYQQKPGKAPRLLIYSASSLYSGVPSRFSGSRSGTDFTLTISSLQPEDFATYYCQQYGYHYAGLITFGQGTKVEIK
As to B4, the binding entry is “binds”.

B5: 3131 AM2-O-05 (Fab, V domains shown)
VH: EVQLVESGGGLVQPGGSLRLSCAASGFDLYYSSMHWVRQAPGKGLEWVASIYSSSGDTHYADSVKGRFTISADTSKNTAYLQMNSLRAEDTAVYYCARSSFSHGYGWYGLDYWGQGTLVTVSS
VL: DIQMTQSPSSLSASVGDRVTITCRASQSVSSAVAWYQQKPGKAPRLLIYSASSLYSGVPSRFSGSRSGTDFTLTISSLQPEDFATYYCQQYGYHYAGLITFGQGTKVEIK
Take B5: the binding entry is reported as “binds”.

B6: 3131 AM2-O-04 (Fab, V domains shown)
VH: EVQLVESGGGLVQPGGSLRLSCAASGFTLYYSSMHWVRQAPGKGLEWVASIYSSSGDTHYADSVKGRFTISADTSKNTAYLQMNSLRAEDTAVYYCARSSFSHGYGWYGLDYWGQGTLVTVSS
VL: DIQMTQSPSSLSASVGDRVTITCRASQSVSSAVAWYQQKPGKAPRLLIYSASSLYSGVPSRFSGSRSGTDFTLTISSLQPEDFATYYCQQYGYHYAGLITFGQGTKVEIK
Regarding B6, the binding result is “binds”.

B7: 3131 AM2-O-03 (Fab, V domains shown)
VH: EVQLVESGGGLVQPGGSLRLSCAASGFSLYYSSMHWVRQAPGKGLEWVASIYSSGGSTSYADSVKGRFTISADTSKNTAYLQMNSLRAEDTAVYYCARSSFSHGYGWYGLDYWGQGTLVTVSS
VL: DIQMTQSPSSLSASVGDRVTITCRASQSVSSAVAWYQQKPGKAPRLLIYSASSLYSGVPSRFSGSRSGTDFTLTISSLQPEDFATYYCQQYGYHYAGLITFGQGTKVEIK
Take B7: the binding result is given as “binds”.

B8: 3131 AM2-25 (Fab, V domains shown)
VH: EVQLVESGGGLVQPGGSLRLSCAASGFNLYYSSMHWVRQAPGKGLEWVASIYSSYGYTYYADSVKGRFTISADTSKNTAYLQMNSLRAEDTAVYYCARSSFSHGYGWYGLDYWGQGTLVTVSS
VL: DIQMTQSPSSLSASVGDRVTITCRASQSVSSAVAWYQQKPGKAPKLLIYSASSRDSGVPSRFSGSRSGTDFTLTISSLQPEDFATYYCQQYGYHYAGLITFGQGTKVEIK
notes: Fab
For the molecule B8, the binding result is “binds”.

B9: 3131 AM2-35 (Fab, V domains shown)
VH: EVQLVESGGGLVQPGGSLRLSCAASGFNLYYSSMHWVRQAPGKGLEWVASIYSSYGYTYYADSVKGRFTISADTSKNTAYLQMNSLRAEDTAVYYCARSSFSHGYGWYGLDYWGQGTLVTVSS
VL: DIQMTQSPSSLSASVGDRVTITCRASQSVSSAVAWYQQKPGKAPKLLIYSASSLYSGVPSRFSGSRSGTDFTLTISSLQPEDFATYYCQQYGYHSAGLITFGQGTKVEIK
notes: Fab
Take B9: the binding entry is on record as “binds”.

B10: 3131 AM2-S-Y (Fab, V domains shown)
VH: EVQLVESGGGLVQPGGSLRLSCAASGFNLYYSSMHWVRQAPGKGLEWVASIYSSYGYTYYADSVKGRFTISADTSKNTAYLQMNSLRAEDTAVYYCARSSFSHGYGWYGLDYWGQGTLVTVSS
VL: DIQMTQSPSSLSASVGDRVTITCRASQSVSSAVAWYQQKPGKAPKLLIYYASSLYSGVPSRFSGSRSGTDFTLTISSLQPEDFATYYCQQYGYHYAGLITFGQGTKVEIK
notes: Fab
With B10, the binding result is listed as “binds”.

B11: 3131 AM2-33 (Fab, V domains shown)
VH: EVQLVESGGGLVQPGGSLRLSCAASGFNLYYSSMHWVRQAPGKGLEWVASIYSSYGHTSYADSVKGRFTISADTSKNTAYLQMNSLRAEDTAVYYCARSSFSHGYGWYGLDYWGQGTLVTVSS
VL: DIQMTQSPSSLSASVGDRVTITCRASQSVSSAVAWYQQKPGKAPKLLIYSASSLYSGVPSRFSGSRSGTDFTLTISSLQPEDFATYYCQQYGYHYAGLITFGQGTKVEIK
notes: Fab
Regarding B11, the binding entry was “binds”.

B12: 3131 AM2-37 (Fab, V domains shown)
VH: EVQLVESGGGLVQPGGSLRLSCAASGFNLYYSSMHWVRQAPGKGLEWVASIYSSSGSTSYADSVKGRFTISADTSKNTAYLQMNSLRAEDTAVYYCARSSFSHGYGWYGLDYWGQGTLVTVSS
VL: DIQMTQSPSSLSASVGDRVTITCRASQSVSSAVAWYQQKPGKAPKLLIYSASSLYSGVPSRFSGSRSGTDFTLTISSLQPEDFATYYCQQYGYHSAGLITFGQGTKVEIK
notes: Fab
For the molecule B12, the binding entry is on record as “binds”.

B13: 3131 AM2-S-G (Fab, V domains shown)
VH: EVQLVESGGGLVQPGGSLRLSCAASGFNLYYSSMHWVRQAPGKGLEWVASIYSSYGYTYYADSVKGRFTISADTSKNTAYLQMNSLRAEDTAVYYCARSSFSHGYGWYGLDYWGQGTLVTVSS
VL: DIQMTQSPSSLSASVGDRVTITCRASQSVSSAVAWYQQKPGKAPKLLIYGASSLYSGVPSRFSGSRSGTDFTLTISSLQPEDFATYYCQQYGYHYAGLITFGQGTKVEIK
notes: Fab
With B13, the binding entry is reported as “binds”.

B14: 3131 AM2-28 (Fab, V domains shown)
VH: EVQLVESGGGLVQPGGSLRLSCAASGFNLYYSSMHWVRQAPGKGLEWVASIYSSYGYTYYADSVKGRFTISADTSKNTAYLQMNSLRAEDTAVYYCARSSFSHGYGWYGLDYWGQGTLVTVSS
VL: DIQMTQSPSSLSASVGDRVTITCRASQSVSSAVAWYQQKPGKAPKLLIYSRSSDSSGVPSRFSGSRSGTDFTLTISSLQPEDFATYYCQQYGYHYAGLITFGQGTKVEIK
notes: Fab
Take B14: the binding entry is given as “binds”.

B15: 3131 AM2-S-H (Fab, V domains shown)
VH: EVQLVESGGGLVQPGGSLRLSCAASGFNLYYSSMHWVRQAPGKGLEWVASIYSSYGYTYYADSVKGRFTISADTSKNTAYLQMNSLRAEDTAVYYCARSSFSHGYGWYGLDYWGQGTLVTVSS
VL: DIQMTQSPSSLSASVGDRVTITCRASQSVSSAVAWYQQKPGKAPKLLIYHASSLYSGVPSRFSGSRSGTDFTLTISSLQPEDFATYYCQQYGYHYAGLITFGQGTKVEIK
notes: Fab
With B15, the binding result is “binds”.

B16: 3131 AM2-32 (Fab, V domains shown)
VH: EVQLVESGGGLVQPGGSLRLSCAASGFNLYYSSMHWVRQAPGKGLEWVASIYSSYGYTYYADSVKGRFTISADTSKNTAYLQMNSLRAEDTAVYYCARSSFSHGYGWYGLDYWGQGTLVTVSS
VL: DIQMTQSPSSLSASVGDRVTITCRASQSVSSAVAWYQQKPGKAPKLLIYSSSSVYSGVPSRFSGSRSGTDFTLTISSLQPEDFATYYCQQYGYHYAGLITFGQGTKVEIK
notes: Fab
As for B16, the binding result was “binds”.

B17: 3131 AM2-S-T (Fab, V domains shown)
VH: EVQLVESGGGLVQPGGSLRLSCAASGFNLYYSSMHWVRQAPGKGLEWVASIYSSYGYTYYADSVKGRFTISADTSKNTAYLQMNSLRAEDTAVYYCARSSFSHGYGWYGLDYWGQGTLVTVSS
VL: DIQMTQSPSSLSASVGDRVTITCRASQSVSSAVAWYQQKPGKAPKLLIYTASSLYSGVPSRFSGSRSGTDFTLTISSLQPEDFATYYCQQYGYHYAGLITFGQGTKVEIK
notes: Fab
As for B17, the binding entry was “binds”.

B18: 3131 AM2-26 (Fab, V domains shown)
VH: EVQLVESGGGLVQPGGSLRLSCAASGFNLYYSSMHWVRQAPGKGLEWVASIYSSYGYTYYADSVKGRFTISADTSKNTAYLQMNSLRAEDTAVYYCARSSFSHGYGWYGLDYWGQGTLVTVSS
VL: DIQMTQSPSSLSASVGDRVTITCRASQSVSSAVAWYQQKPGKAPKLLIYSESSLSSGVPSRFSGSRSGTDFTLTISSLQPEDFATYYCQQYGYHYAGLITFGQGTKVEIK
notes: Fab
For B18, the binding entry was “binds”.

B19: 3131 AM2-30 (Fab, V domains shown)
VH: EVQLVESGGGLVQPGGSLRLSCAASGFNLYYSSMHWVRQAPGKGLEWVASIYSSYGYTYYADSVKGRFTISADTSKNTAYLQMNSLRAEDTAVYYCARSSFSHGYGWYGLDYWGQGTLVTVSS
VL: DIQMTQSPSSLSASVGDRVTITCRASQSVSSAVAWYQQKPGKAPKLLIYSASSERSGVPSRFSGSRSGTDFTLTISSLQPEDFATYYCQQYGYHYAGLITFGQGTKVEIK
notes: Fab
Take B19: the binding result is recorded as “binds”.

B20: 3131 AM2-31 (Fab, V domains shown)
VH: EVQLVESGGGLVQPGGSLRLSCAASGFNLYYSSMHWVRQAPGKGLEWVASIYSSYGYTYYADSVKGRFTISADTSKNTAYLQMNSLRAEDTAVYYCARSSFSHGYGWYGLDYWGQGTLVTVSS
VL: DIQMTQSPSSLSASVGDRVTITCRASQSVSSAVAWYQQKPGKAPKLLIYSESSLYSGVPSRFSGSRSGTDFTLTISSLQPEDFATYYCQQYGYHYAGLITFGQGTKVEIK
notes: Fab
Take B20: the binding entry is “binds”.
